Patent publication US20260102359A1, “COMBINATION TREATMENT OF DERMAL AND TRANSDERMAL FIBROTIC DISEASES, DISORDERS AND ASSOCIATED PAIN AND INFLAMMATION” (ERESINA, LLC, priority 2022, published 2026)

Test system: hDMFa myofibroblast cells
Design: key to the marks not given beside the values

Structure (SMILES) | Compound Myofibroblast Cytotoxicity Activity
O=C1OCCN1/N=C/c1ccc([N+](=O)[O-])o1 [Cmpd 475, Furazolidone] | ++
Cl.NCCC[C@H](N)C(=O)O [Cmpd 551, L(+)-Ornithine hydrochloride] | +++++
